PubChem BioAssay AID1259294, Sanger Institute, 2017

Assay: 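Genes whose silencing strengthens the effect of BYL719, cetuximab or trametinib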 (follow-up of hits)
Cells: human CL40 colorectal cancer cells
Reagents: single siRNA against human genes
Conditions: anchor drug or DMSO vehicle added to knock-down cells: BYL719 1 µM, cetuximab 5 µg/ml, trametinib 10 nM
Measured: 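Viability averaged across replicates, each scaled to control pool 2 (non-targeting), under vehicle or anchor drug; synergy score compares observed combined effect with expected effect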
Direction: synergy score with trametinib and synergy score with BYL719 and synergy score with cetuximab: higher = stronger synergistic (synthetic lethal) killing
Active means: 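a synergy score over 0.10 with BYL719, cetuximab or trametinib marks synergy with a drug; lacking such a score means no synergy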
Meaning of the calls: active = synergy with a drug; inactive = no synergy
The deposit covers 160 reagents; this is a part drawn at random. 43 of them (27%) count as active. 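Calls mean synergy with any one drug, not lethality of knock-down alone; BYL719 1 µM, cetuximab 5 µg/ml, trametinib 10 nM barely cut viability.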 Not all columns of the deposit are shown. Reagent sequences are not shown. Not stated in the record: the amount of reagent, the time to read-out.

gene | PubChem SID | synergy score with trametinib | synergy score with BYL719 | synergy score with cetuximab | outcome
PAK1 | SID56475940 | 0.17 | 0.0655 | -0.106 | active
PAK1 | SID56475941 | 0.0875 | 0.0318 | -0.019 | inactive
PAK1 | SID56475942 | 0.163 | 0.105 | -0.345 | active
PAK1 | SID135611339 | 0.0882 | -0.251 | 0.202 | active
PFKFB3 | SID56477763 | -0.0748 | -0.142 | -0.166 | inactive
PFKFB3 | SID56477764 | 0.12 | -0.058 | 0.0593 | active
PFKFB3 | SID56477765 | -0.085 | -0.405 | -0.146 | inactive
PFKFB3 | SID135612150 | 0.148 | -0.0717 | 0.0709 | active
AK2 | SID56477903 | -0.0819 | -0.444 | -0.0849 | inactive
AK2 | SID56477904 | 0.218 | -0.222 | -0.106 | active
AK2 | SID56477905 | 0.0232 | -0.298 | -0.106 | inactive
AK2 | SID56477906 | 0.169 | -0.194 | -0.218 | active
PIK3CA | SID56475149 | 0.178 | -0.023 | -0.0114 | active
PIK3CA | SID56475150 | 0.0116 | -0.17 | -0.114 | inactive
PIK3CA | SID135611211 | 0.158 | 0.0209 | -0.19 | active
PIK3CA | SID135611212 | 0.0149 | -0.418 | -0.208 | inactive
NLK | SID56476715 | 0.00601 | -0.111 | -0.184 | inactive
NLK | SID56476716 | 0.159 | -0.02 | 0.00575 | active
NLK | SID56476717 | 0.0278 | -0.292 | 0.0849 | inactive
NLK | SID56476718 | 0.00133 | -0.0755 | -0.125 | inactive
NR2F2 | SID134229233 | 0.0997 | -0.0561 | -0.0456 | inactive
NR2F2 | SID134229234 | -0.0391 | -0.292 | -0.23 | inactive
NR2F2 | SID134229235 | -0.0475 | -0.269 | -0.159 | inactive
NR2F2 | SID134229236 | 0.124 | 0.077 | -0.179 | active

Continued (6 carried over from the part before).
gene | PubChem SID | synergy score with trametinib | synergy score with BYL719 | synergy score with cetuximab | outcome
NLK | SID56476717 | 0.0278 | -0.292 | 0.0849 | inactive
NLK | SID56476718 | 0.00133 | -0.0755 | -0.125 | inactive
NR2F2 | SID134229233 | 0.0997 | -0.0561 | -0.0456 | inactive
NR2F2 | SID134229234 | -0.0391 | -0.292 | -0.23 | inactive
NR2F2 | SID134229235 | -0.0475 | -0.269 | -0.159 | inactive
NR2F2 | SID134229236 | 0.124 | 0.077 | -0.179 | active
PINK1 | SID56476283 | -0.113 | -0.354 | -0.218 | inactive
PINK1 | SID56476284 | 0.214 | -0.11 | 0.0357 | active
PINK1 | SID56476285 | 0.055 | -0.139 | 0.0203 | inactive
PINK1 | SID56476286 | 0.0959 | -0.163 | -0.13 | inactive
MAP3K8 | SID56475911 | 0.0334 | -0.077 | -0.106 | inactive
MAP3K8 | SID56475912 | -0.0156 | -0.156 | -0.0342 | inactive
MAP3K8 | SID56475913 | 0.0036 | -0.215 | -0.0754 | inactive
MAP3K8 | SID56475914 | 0.0934 | -0.0594 | -0.249 | inactive
ACVR1 | SID56476923 | -0.0337 | -0.235 | -0.106 | inactive
ACVR1 | SID56476924 | -0.0159 | -0.237 | -0.106 | inactive
ACVR1 | SID56476925 | -0.0119 | -0.277 | -0.106 | inactive
ACVR1 | SID152154144 | 0.0678 | -0.243 | -0.106 | inactive
CRIM1 | SID134243173 | -0.108 | -0.142 | -0.183 | inactive
CRIM1 | SID134243174 | -0.205 | -0.476 | -0.269 | inactive
CRIM1 | SID134243175 | -0.0115 | -0.0319 | -0.391 | inactive
CRIM1 | SID134243176 | 0.0111 | -0.0606 | -0.211 | inactive
CSNK2A2 | SID56476699 | -0.00993 | -0.0152 | -0.106 | inactive
CSNK2A2 | SID56476700 | -0.0508 | -0.151 | -0.0296 | inactive
CSNK2A2 | SID56476701 | 0.0514 | 0.016 | -0.0779 | inactive
CSNK2A2 | SID56476702 | 0.0422 | -0.17 | 0.0841 | inactive
COASY | SID56477723 | 0.0176 | -0.184 | -0.0126 | inactive
COASY | SID56477724 | 0.0395 | 0.0381 | -0.189 | inactive
COASY | SID56477725 | 0.0126 | -0.0337 | 0.0481 | inactive
COASY | SID56477726 | 0.086 | 0.0453 | -0.0626 | inactive
MARK3 | SID56475931 | -0.00825 | -0.449 | -0.225 | inactive
MARK3 | SID56475932 | 0.141 | 0.0982 | -0.106 | active
MARK3 | SID56475933 | -0.0898 | -0.436 | -0.177 | inactive
MARK3 | SID56475934 | 0.178 | -0.0499 | -0.188 | active
BMPR2 | SID56477247 | 0.0262 | -0.2 | -0.106 | inactive
BMPR2 | SID56477249 | 0.164 | -0.232 | -0.025 | active
BMPR2 | SID56477250 | 0.0327 | -0.209 | -0.106 | inactive
BMPR2 | SID135611748 | -0.213 | -0.322 | -0.106 | inactive
